No constants are given. Whether binding was seen depends on the method and setting. For part of these data: In cells and extracts the contact can be indirect. Some entries that bind do so weakly or less than the wild type. For part of these data: Tags and fused reporters may be left off the sequences shown.
Assays:
[1] = target: T1, GST-DM5 (GST fusion of the 36 amino acid DM5 segment of Dsh, amino acids 214-249) (Drosophila); experiment: restatement of Example 2
T1 sequence: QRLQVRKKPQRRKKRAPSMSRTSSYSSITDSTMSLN

[2] = target: Dishevelled (Dsh) protein, endogenous, from Drosophila embryos and Clone-8 cells (Drosophila) (UniProt P51140); experiment: summary of Examples 1 and 2
[3] = target: Dishevelled (Dsh) protein, endogenous, from Drosophila embryos and Clone-8 cells (Drosophila) (UniProt P51140); experiment: restatement of earlier examples
[4] = target: GST-fusion protein containing the middle region of Dsh (GST-DM) (Drosophila) (UniProt P51140); experiment: GST pull-down, in vitro kinase assay
[5] = target: Dishevelled (Dsh) protein, endogenous, from Drosophila embryos and Clone-8 cells (Drosophila) (UniProt P51140); experiment: co-immunoprecipitation with endogenous Dsh
[6] = target: T1, GST-DM5 (GST fusion of the 36 amino acid DM5 segment of Dsh, amino acids 214-249) (Drosophila); experiment: GST-DM5 precipitation, in vitro kinase assay
[7] = target: GST-fusion protein containing the middle region of Dsh (GST-DM) (Drosophila) (UniProt P51140); experiment: GST pull-down from lysates, in vitro kinase assay
[8] = target: Dishevelled (Dsh) protein, endogenous, from Drosophila embryos and Clone-8 cells (Drosophila) (UniProt P51140); experiment: co-immunoprecipitation from Clone-8 cells, Western blot
[9] = target: Dishevelled (Dsh) protein, endogenous, from Drosophila embryos and Clone-8 cells (Drosophila) (UniProt P51140); experiment: co-immunoprecipitation with endogenous Dsh, high salt elution
[10] = target: T1, GST-DM5 (GST fusion of the 36 amino acid DM5 segment of Dsh, amino acids 214-249) (Drosophila); experiment: GST pull-down with segments of the DM region, in vitro kinase assay
[11] = target: T1, GST-DM5 (GST fusion of the 36 amino acid DM5 segment of Dsh, amino acids 214-249) (Drosophila); experiment: GST-DM5 affinity chromatography; activity eluted in a 0.2 to 0.6 M NaCl gradient
[12] = target: GST-fusion protein containing the middle region of Dsh (GST-DM) (Drosophila) (UniProt P51140); experiment: GST pull-down from lysates, and re-binding of kinase eluted from Dsh immuno-complex; in vitro kinase assay

Measured: binding

B1: Dishevelled Associated Kinase (DAK), endogenous kinase activity from Drosophila embryo and Clone-8 cell lysates (enzyme)
chain: MSTAMRTTLQSVPEALPADSVSNGTASNVAAPAAPVSSATNAVPPLAAVSSTTATYATNSISTSSHSVKDQQQQQQQQQHDSANANIVSLPPTTTPVANTNTMMPIVTSSNSATSNSTAATPTPASGAAATGGVGSVSQGPATVSASAANTNHSHQHSHQHHHHVANNMTTDGARLSSNNSAVVASSAINHHHHHTPGSGVAPTVNKNVLSTHSAHPSAIKQRTSSAKGSPNMQMRSSAPMRWRATEEHIGKYKLIKTIGKGNFAKVKLAKHLPTGKEVAIKIIDKTQLNPGSLQKLFREVRIMKMLDHPNIVKLFQVIETEKTLYLIMEYASGGEVFDYLVLHGRMKEKEARVKFRQIVSAVQYCHQKRIIHRDLKAENLLLDSELNIKIADFGFSNEFTPGSKLDTFCGSPPYAAPELFQGKKYDGPEVDVWSLGVILYTLVSGSLPFDGSTLRELRERVLRGKYRIPFYMSTDCENLLRKFLVLNPAKRASLETIMGDKWMNMGFEEDELKPYIEPKADLADPKRIEALVAMGYNRSEIEASLSQVRYDDVFATYLLLGRKSTDPESDGSRSGSSLSLRNISGNDAGANAGSASVQSPTHRGVHRSISASSTKPSRRASSGAETLRVGPTNAAATVAAATGAVGAVNPSNNYNAAGSAADRASVGSNFKRQNTIDSATIKENTARLAAQNQRPASATQKMLTTADTTLNSPAKPRTATKYDPTNGNRTVSGTSGIIPRRSTTLYEKTSSTEKTNVIPAETKMASAVKSSRHFPRNVPSRSTFHSGQTRARNNTALEYSGTSGASGDSSHPGRMSFFSKLSSRFSKRPNQ
binds: all assays above

From patent publication US20040005688A1
